{"sequences": {"note": "By UniProt entry, the sequences of proteins in these tests, tags left out.", "UniProt P33334": "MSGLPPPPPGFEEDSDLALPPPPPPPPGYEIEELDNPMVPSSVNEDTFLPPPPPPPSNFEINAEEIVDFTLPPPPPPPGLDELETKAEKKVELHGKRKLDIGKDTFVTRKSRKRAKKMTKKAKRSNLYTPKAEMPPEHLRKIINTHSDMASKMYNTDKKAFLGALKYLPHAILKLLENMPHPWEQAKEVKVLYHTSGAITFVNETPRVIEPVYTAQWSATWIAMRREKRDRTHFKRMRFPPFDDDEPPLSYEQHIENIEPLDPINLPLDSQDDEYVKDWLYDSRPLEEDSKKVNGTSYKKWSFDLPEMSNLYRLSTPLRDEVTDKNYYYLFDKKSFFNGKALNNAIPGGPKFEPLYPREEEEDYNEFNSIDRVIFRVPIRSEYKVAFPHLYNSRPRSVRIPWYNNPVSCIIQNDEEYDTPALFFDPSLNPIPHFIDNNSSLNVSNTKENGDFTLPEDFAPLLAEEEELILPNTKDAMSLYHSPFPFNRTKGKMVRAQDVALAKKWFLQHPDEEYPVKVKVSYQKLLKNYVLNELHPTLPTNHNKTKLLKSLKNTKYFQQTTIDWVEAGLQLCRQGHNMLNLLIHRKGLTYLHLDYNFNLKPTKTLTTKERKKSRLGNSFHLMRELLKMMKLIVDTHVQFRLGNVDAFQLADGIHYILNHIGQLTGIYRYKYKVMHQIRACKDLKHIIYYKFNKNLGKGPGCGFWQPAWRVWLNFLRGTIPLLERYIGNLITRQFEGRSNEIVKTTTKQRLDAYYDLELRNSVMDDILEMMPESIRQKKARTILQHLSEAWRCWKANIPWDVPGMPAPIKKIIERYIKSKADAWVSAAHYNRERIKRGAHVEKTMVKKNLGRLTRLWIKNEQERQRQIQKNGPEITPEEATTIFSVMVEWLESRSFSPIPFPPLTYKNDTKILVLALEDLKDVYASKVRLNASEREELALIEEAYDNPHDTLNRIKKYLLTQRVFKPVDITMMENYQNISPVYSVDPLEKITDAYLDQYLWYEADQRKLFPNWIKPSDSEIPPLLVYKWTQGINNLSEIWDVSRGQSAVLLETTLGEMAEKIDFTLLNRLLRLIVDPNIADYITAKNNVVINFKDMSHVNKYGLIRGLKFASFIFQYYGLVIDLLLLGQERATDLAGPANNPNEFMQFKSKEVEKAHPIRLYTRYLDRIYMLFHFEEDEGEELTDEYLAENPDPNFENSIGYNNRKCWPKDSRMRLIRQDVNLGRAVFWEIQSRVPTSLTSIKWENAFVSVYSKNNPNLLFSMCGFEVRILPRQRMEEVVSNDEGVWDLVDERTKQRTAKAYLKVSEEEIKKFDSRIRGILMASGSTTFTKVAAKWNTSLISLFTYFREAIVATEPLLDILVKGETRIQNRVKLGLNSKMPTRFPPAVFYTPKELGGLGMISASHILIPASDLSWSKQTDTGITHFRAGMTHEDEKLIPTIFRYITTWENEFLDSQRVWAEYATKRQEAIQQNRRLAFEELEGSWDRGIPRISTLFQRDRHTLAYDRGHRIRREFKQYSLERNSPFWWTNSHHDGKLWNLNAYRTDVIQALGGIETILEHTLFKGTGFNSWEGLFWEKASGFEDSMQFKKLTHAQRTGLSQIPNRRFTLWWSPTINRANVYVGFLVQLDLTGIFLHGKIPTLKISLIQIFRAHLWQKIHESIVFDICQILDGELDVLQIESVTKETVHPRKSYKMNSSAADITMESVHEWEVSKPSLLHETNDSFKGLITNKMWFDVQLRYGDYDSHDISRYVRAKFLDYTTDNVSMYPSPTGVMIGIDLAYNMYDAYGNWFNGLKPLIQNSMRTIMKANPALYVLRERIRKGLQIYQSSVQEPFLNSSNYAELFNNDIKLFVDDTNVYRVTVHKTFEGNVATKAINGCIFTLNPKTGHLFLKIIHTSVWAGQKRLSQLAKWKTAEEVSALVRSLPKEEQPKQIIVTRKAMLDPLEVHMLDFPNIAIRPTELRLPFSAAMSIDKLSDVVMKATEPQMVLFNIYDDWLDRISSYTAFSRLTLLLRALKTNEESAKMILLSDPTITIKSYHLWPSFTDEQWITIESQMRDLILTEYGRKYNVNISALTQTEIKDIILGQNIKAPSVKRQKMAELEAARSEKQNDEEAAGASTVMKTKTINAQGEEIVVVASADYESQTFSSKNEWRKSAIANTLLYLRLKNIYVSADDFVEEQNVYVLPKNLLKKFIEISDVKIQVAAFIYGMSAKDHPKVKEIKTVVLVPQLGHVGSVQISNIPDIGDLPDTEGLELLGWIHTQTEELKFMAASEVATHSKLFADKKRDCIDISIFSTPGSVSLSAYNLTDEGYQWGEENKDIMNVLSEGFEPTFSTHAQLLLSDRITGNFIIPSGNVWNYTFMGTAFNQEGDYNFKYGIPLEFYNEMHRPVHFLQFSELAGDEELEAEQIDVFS"}, "source": "paper PMC6800482", "binders": {"B1": {"name": "Spt5-AID*-6Flag (protein, UniProt P27692 1-1063)", "chain": "MSDNSDTNVSMQDHDQQFADPVVVPQSTDTKDENTSDKDTVDSGNVTTTESTERAESTSNIPPLDGEEKEAKSEPQQPEDNAETAATEQVSSSNGPATDDAQATLNTDSSEANEIVKKEEGSDERKRPREEDTKNSDGDTKDEGDNKDEDDDEDDDDDDDDEDDDDEAPTKRRRQERNRFLDIEAEVSDDEDEDEDEEDSELVREGFITHGDDEDDEASAPGARRDDRLHRQLDQDLNKTSEEDAQRLAKELRERYGRSSSKQYRAAAQDGYVPQRFLLPSVDTATIWGVRCRPGKEKELIRKLLKKKFNLDRAMGKKKLKILSIFQRDNYTGRIYIEAPKQSVIEKFCNGVPDIYISQKLLIPVQELPLLLKPNKSDDVALEEGSYVRIKRGIYKGDLAMVDQISENNLEVMLKIVPRLDYGKFDEIDPTTQQRKSRRPTFAHRAPPQLFNPTMALRLDQANLYKRDDRHFTYKNEDYIDGYLYKSFRIQHVETKNIQPTVEELARFGSKEGAVDLTSVSQSIKKAQAAKVTFQPGDRIEVLNGEQRGSKGIVTRTTKDIATIKLNGFTTPLEFPISTLRKIFEPGDHVTVINGEHQGDAGLVLMVEQGQVTFMSTQTSREVTITANNLSKSIDTTATSSEYALHDIVELSAKNVACIIQAGHDIFKVIDETGKVSTITKGSILSKINTARARVSSVDANGNEIKIGDTIVEKVGSRREGQVLYIQTQQIFVVSKKIVENAGVFVVNPSNVEAVASKDNMLSNKMDLSKMNPEIISKMGPPSSKTFQQPIQSRGGREVALGKTVRIRSAGYKGQLGIVKDVNGDKATVELHSKNKHITIDKHKLTYYNREGGEGITYDELVNRRGRVPQARMGPSYVSAPRNMATGGIAAGAAATSSGLSGGMTPGWSSFDGGKTPAVNAHGGSGGGGVSSWGGASTWGGQGNGGASAWGGAGGGASAWGGQGTGATSTWGGASAWGNKSSWGGASTWASGGESNGAMSTWGGTGDRSAYGGASTWGGNNNNKSTRDGGASAWGNQDDGNRSAWNNQGNKSNYGGNSTWGGH"}}, "target": "Prp8 (S. cerevisiae (endogenous in the yeast strain)) (UniProt P33334)", "assay": "co-IP; Prp40, Lea1-3HA or Prp8 pulled down with anti-Prp40, anti-HA or anti-Prp8 on Protein A/G Dynabeads from 1 mg of lysate protein of the Spt5-AID*-6Flag Lea1-3HA strain, 1 h at room temperature; lysis buffer 50 mM Tris-HCl pH 7.5, 150 mM NaCl, 0.2% NP-40; with or without RNase A (100 µg/mL); blot probed with anti-Flag; rabbit IgG as negative control", "note": "No constants are given. Whether binding was seen depends on the method and setting. Binding seen in cells or lysates may run through a third protein. Some binding calls cover weakened binding; strength is not graded here. Where a sequence is shown, tags or fusion partners need not be part of it.", "data": [{"binder": "B1", "values": [{"measurement": "binding", "result": "binds"}]}]}
